Measured values taken from the supplement of paper PMC8166895.
Several values for one entry are separate records, joined by “and”; a condition that tells them apart may be missing. Identical values can stand only once. Counter-ions that a name gives are not always drawn. This is one part of the list. Most values lie at the level of the controls, where differences are scatter.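 Melting temperature was read by differential scanning fluorimetry in a single-replicate pilot screen of a library of approved drugs and clinical or known-target compounds. Compounds raising the melting point by at least 2 °C were the top stabilizing hits, and negative shifts mean destabilization.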

Test system: SARS-CoV-2 main protease (Mpro, nsp5)
Experiment: thermal shift ΔTm of Mpro relative to plate average Tm; higher = stronger thermal stabilization of Mpro (binding)
Details: 10 µM; protein concentration 1 µM

SMILES | thermal shift ΔTm of Mpro
CN1CCN(Cc2ccc(Nc3ncc(Cl)c(Nc4ccccc4S(=O)(=O)N(C)C)n3)cc2)CC1 | -0.0207 °C
COC(=O)c1ccc2c(c1)nc(NC(=O)c1ccccc1)n2CCCc1ccccc1 | -0.48 °C
O=S(=O)(F)Cc1ccccc1 | 0.0762 °C
c1ccc(NCc2ccc(CNc3ccccn3)cc2)nc1 | -0.0273 °C
O=C([O-])c1ccccc1[O-].[Bi+3].[OH-] [Bismuth subsalicylat] | 0.109 °C
Cc1nnc(C(=O)NC(C)(C)c2nc(C(=O)NCc3ccc(F)cc3)c(O)c(=O)n2C)o1 [Raltegravir (MK-0518)] | 0.194 °C
C[C@@H]1C[C@H]2[C@@H]3C[C@H](F)C4=CC(=O)C=C[C@]4(C)[C@@]3(F)[C@@H](O)C[C@]2(C)[C@@]1(O)C(=O)CO [Flumethasone] | 0.0765 °C
O=C(NC[C@H]1CN(c2ccc(N3CCOCC3=O)cc2)C(=O)O1)c1ccc(Cl)s1 [Rivaroxaban] | -0.0798 °C
O=C(O)Cc1ccc(-c2ccccc2)cc1 [4-Biphenylacetic acid] | -0.0857 °C
COc1cc(N2CCC(N3CCN(C)CC3)CC2)ccc1Nc1ncc(Cl)c(-c2c[nH]c3ccccc23)n1 | 0.298 °C
Cc1cc2c(cc1CC(=O)c1sccc1S(=O)(=O)Nc1onc(C)c1Cl)OCO2 [Sitaxentan sodium] | 0.518 °C
O=C(O)c1cn(-c2ccc(F)cc2)c2cc(N3CCNCC3)c(F)cc2c1=O [Sarafloxacin hydrochloride] | 0.0204 °C
C[N+]1(C)CCC(OC(=O)C(O)(c2ccccc2)C2CCCC2)C1 (centres undefined) [Glycopyrrolate] | 0.158 °C
O=C(O)c1ccc(S(=O)(=O)NC2CCCCC2)cc1 | 0.00265 °C
N[C@@H](CCC(=O)O)C(=O)[O-].[Na+] [L-Glutamic acid monosodium salt] | 0.311 °C
O=C(Nc1cccc(Cl)c1)c1ccccn1 | 0.00192 °C
CN(C)C(=O)Nc1cccc(-c2ccc(N(C)C)cc2)c1 [Atglistatin] | -0.314 °C
Clc1ccc(CCC(Cn2ccnc2)Sc2c(Cl)cccc2Cl)cc1 (centres undefined) [Butoconazole nitrate] | -0.285 °C
C[C@@]1(C(=O)Nc2ccc(F)nc2)CCCN1c1nc(Nc2cc(C3CC3)n[nH]2)c2cccn2n1 | -0.111 °C
N#Cc1ccc(C(c2ccc(C#N)cc2)n2cncn2)cc1 [Letrozole] | 0.142 °C
C=CC(=O)N1CCC(CNc2ncnc(N)c2-c2ccc(Oc3ccccc3)cc2)CC1 [evobrutinib] | -0.066 °C

SMILES | thermal shift ΔTm of Mpro
Cn1c(=O)c2c(ncn2CC(=O)Nc2ccc(-c3ccccc3)nn2)n(C)c1=O | -0.0357 °C
N=C(NCCCCCCNC(=N)NC(=N)Nc1ccc(Cl)cc1)NC(=N)Nc1ccc(Cl)cc1 [Chlorhexidine] | 0.0416 °C
N=C(NCCCCCCNC(=N)NC(=N)Nc1ccc(Cl)cc1)NC(=N)Nc1ccc(Cl)cc1 [Chlorhexidine HCl] | 0.151 °C
CN1CCN(C2=Nc3ccccc3Oc3ccc(Cl)cc32)CC1 [Loxapine Succinate] | -0.19 °C
CC(C)CC(N)=O [Isovaleramide] | -0.126 °C
Cc1cc2sc(NC(=O)Cc3ccccc3)nc2cc1Cl | 0.0825 °C
COc1ccc(-c2cccc(C(=O)N(C)C)c2)cc1S(=O)(=O)Nc1cccc(NCCNC(=O)c2cccc(C)c2)c1 [Orexin 2 Receptor Agonist] | 0.0075 °C
CCOC(=O)[C@@H](N)Cc1ccc(-c2cc(O[C@H](c3ccc(Cl)cc3-n3ccc(C)n3)C(F)(F)F)nc(N)n2)cc1 [Telotristat Etiprate (LX 1606 Hippurate)] | -0.291 °C
CC(C)c1ccc(C(=O)N=C(N)N)cc1S(C)(=O)=O [Cariporide] | -0.0319 °C
NC(=O)c1ccc(N(C(N)=O)c2c(F)cccc2F)nc1-c1ccc(F)cc1F | -0.142 °C
CC(=O)Oc1ccccc1C(=O)Nc1ncc([N+](=O)[O-])s1 [Nitazoxanide] | 0.101 °C
CSc1nc(Nc2ccccc2)c2cccnc2n1 | -0.00237 °C
CCCCOCCOCCOCc1cc2c(cc1CCC)OCO2 [Piperonyl butoxide] | 0.0343 °C
CCCc1cc(C)[nH]c(=O)c1CNC(=O)c1cc(-c2ccc(N3CCN(C(C)C)CC3)nc2)cc2c1cnn2C(C)C | -0.176 °C
CCCCC(O)c1ccccc1 (centres undefined) [Fenipentol] | 0.138 °C
CCOC(=O)c1cc(C#N)c(N2CCC(C(=O)NS(=O)(=O)Cc3ccccc3)CC2)nc1C | -0.0695 °C
O=C(O)c1cn(C2CC2)c2cc(N3CCC(O)(COc4ccc(N5C[C@H](CO)OC5=O)cc4F)CC3)c(F)cc2c1=O [Cadazolid] | -0.0744 °C
COc1cc(N2CCOCC2)ccc1Nc1ncc(Cl)c(Nc2ccccc2NS(C)(=O)=O)n1 | -0.0372 °C
COc1ccc([C@@H]2CC(=O)c3c(O)cc(O)cc3O2)cc1O [Hesperetin] | -0.25 °C
CC(C)(C)C(=O)Nc1ccc2c(c1)C(=O)C(=O)c1ccccc1-2 | -0.0951 °C
Nc1c(CC(=O)O)cccc1C(=O)c1ccccc1 [Amfenac Sodium Monohydrate] | -0.018 °C

SMILES | thermal shift ΔTm of Mpro
COc1cccc(C=Nc2cccc(C(=O)O)c2C)c1O | 0.024 °C
CC(C)C[C@H](NP(=O)(O)O[C@@H]1O[C@@H](C)[C@H](O)[C@@H](O)[C@H]1O)C(=O)N[C@@H](Cc1c[nH]c2ccccc12)C(=O)O [Phosphoramidon Disodium Salt] | -0.0643 °C
COc1ccc(-c2ccc3c(N4CCOC[C@@H]4C)nc(N4CCOC[C@@H]4C)nc3n2)cc1CO | -0.213 °C
O=C(Nc1ccc(Cl)cc1)Nc1ccc(Cl)c(Cl)c1 [Triclocarban] | 0.467 °C
CN[C@@H](C)C(=O)N[C@H](C(=O)N1CCC[C@H]1c1nc(C(=O)c2ccc(F)cc2)cs1)C1CCCCC1 | -0.0848 °C
O=C1c2c(O)cccc2Cc2cccc(O)c21 [Anthralin] | 0.0578 °C
Cc1c(C(=O)Nc2ccc(Oc3ccnc4[nH]cc(-c5ccccc5)c34)c(F)c2)c(=O)n(-c2ccc(F)cc2)n1C | 0.217 °C
COc1nccc(-c2c(-c3ccc(F)cc3)ncn2C2CCC(O)CC2)n1 (centres undefined) | -0.0675 °C
COc1c(C)c(C(=O)c2ccc(N)c(C(=O)O)c2)n2ccccc12 | -0.106 °C
NCCc1c[nH]cn1 [Histamine 2HCl] | -0.0472 °C
OC[C@H](Cc1ccccc1)Nc1nc(Oc2ccc3c(c2)CCC3)nc2c1ncn2Cc1ccc(-c2ccccc2)cc1 | 0.00658 °C
Cc1ccc(-c2csc3ncnc(SCCC(=O)O)c23)cc1 | -0.0342 °C
OC(Cn1cncn1)(Cn1cncn1)c1ccc(F)cc1F [Fluconazole] | 0.297 °C
Nc1[nH]cnc2ncnc1-2 [Adenine HCl] | 0.169 °C
N=C1CCCN1Cc1[nH]c(=O)[nH]c(=O)c1Cl [Tipiracil hydrochloride] | -0.0424 °C
C[C@@H](NCCCc1cccc(C(F)(F)F)c1)c1cccc2ccccc12 [Cinacalcet HCl] | 0.177 °C
CC(=O)Nc1cccc(-n2c(=O)n(C3CC3)c(=O)c3c(Nc4ccc(I)cc4F)n(C)c(=O)c(C)c32)c1 | -0.317 °C
C[C@@H]1Cc2c([nH]c3ccccc23)[C@@H](c2c(F)cc(/C=C/C(=O)O)cc2F)N1CC(C)(C)F | -0.123 °C
OCCN1CCN(CC/C=C2/c3ccccc3Sc3ccc(C(F)(F)F)cc32)CC1 [Flupenthixol dihydrochloride] | -0.0233 °C
COc1cc2ncnc(Sc3nnc(C)s3)c2cc1OC | -0.153 °C
O=C(NC[C@H](O)CN1CCc2ccccc2C1)c1cc(NC2COC2)ncn1 | 0.00526 °C

SMILES | thermal shift ΔTm of Mpro
NC(=O)CN1CCCC1=O [Piracetam] | -0.0187 °C
Cc1cc(-c2ccccc2)cc(C(=O)NNS(=O)(=O)c2ccccc2)c1F | -0.186 °C
O=C1NC(=O)C(c2cnc3ccccn23)=C1c1cn2c3c(cc(F)cc13)CN(C(=O)N1CCCCC1)CC2 | -0.102 °C
Cc1cn[nH]c1 [4-Methylpyrazole] | 0.0209 °C
Cc1ccc(S(=O)(=O)c2ccc([N+](=O)[O-])o2)cc1 | -0.319 °C
FC(F)(F)C(Cl)Br (centres undefined) [Anestan] | 0.00529 °C
COC(=O)Nc1nc2cc(C(=O)c3cccs3)ccc2[nH]1 [Nocodazole] | -0.113 °C
Cc1ccc(C(=O)c2ccc(CC(=O)O)n2C)cc1 [Tolmetin] | -0.116 °C
COc1cc(Br)c(Nc2nc(-c3c(C)nc4ncccn34)cs2)c(Br)c1 | -0.14 °C and 0.0997 °C
CC(=O)OCC(=O)[C@@]1(O)CC[C@H]2[C@@H]3CCC4=CC(=O)CC[C@]4(C)[C@@]3(F)[C@@H](O)C[C@@]21C [Fludrocortisone acetate] | 0.169 °C
CC(C)c1cc(/C=C(\C#N)C(=O)NCCCc2ccccc2)cc(C(C)C)c1O | -0.16 °C
CN1C(=O)c2sccc2N(C)c2nc(Nc3ccc(S(N)(=O)=O)cc3)ncc21 | -0.243 °C
NS(=O)(=O)c1cc(C2(O)NC(=O)c3ccccc32)ccc1Cl (centres undefined) [Chlortalidone] | 0.112 °C
CC(C)(C)c1cnc(CSc2cnc(NC(=O)C3CCNCC3)s2)o1 | -0.0868 °C
CCCCCCCCCCCCCCCC(=O)OC/C=C(C)/C=C/C=C(C)/C=C/C1=C(C)CCCC1(C)C [Retinol palmitate] | 0.162 °C
CC(C)c1c(C(=O)Nc2ccccc2)c(-c2ccccc2)c(-c2ccc(F)cc2)n1CC[C@@H](O)C[C@@H](O)CC(=O)O [Atorvastatin Calcium] | 0.0335 °C
CC(=O)OCC(=O)[C@@]1(O)CC[C@H]2[C@@H]3CCC4=CC(=O)CC[C@]4(C)[C@H]3[C@@H](O)C[C@@]21C [Hydrocortisone acetate] | -0.0178 °C
CCN[C@H]1CN(CCCOC)S(=O)(=O)c2sc(S(N)(=O)=O)cc21 [Brinzolamide] | 0.432 °C
CC(C)Oc1ccc(-c2c[nH]cc2CN(C)CCN)cc1 | -0.0807 °C
CNS(=O)(=O)c1ccccc1Nc1nc(Nc2ccc(N3CCN(C)CC3)cc2OC)ncc1Cl [ALK inhibitor 2] | 0.095 °C
O=S(=O)(c1ccc2c(c1)C(=NO)c1cc(S(=O)(=O)N3CCCCC3)ccc1-2)N1CCCCC1 | -0.159 °C
